System: Chronic rhinitis of allergic origin, chronic bronchitis
Assay: Treatment of patient F.
Format: in vivo, human
Settings: before individual testing
Experimental: Diagnosis: “Chronic rhinitis of allergic origin, chronic bronchitis, allergic component in the acute stage.” In history: positive allergic reactions to penicillin antibiotics, the lack of reaction to tetracycline antibiotics. […] Doxycycline is used in doses of 100 mg and 200 mg on admission; when calculating the duration of induktothermy effect was adopted by the duration of the patient's blood sample for 2 seconds, which corresponds to the length of the actual procedure, 25-30 minutes.

CN1CCC[C@@H]1CCO[C@](C)(c1ccccc1)c1ccc(Cl)cc1 [Tavegil]
efficiency of conventional therapy: low efficiency
